The values that follow come from article PMC5314175.

Amino acid sequences for entries named in this document (tags omitted).
UniProt Q9UQ84: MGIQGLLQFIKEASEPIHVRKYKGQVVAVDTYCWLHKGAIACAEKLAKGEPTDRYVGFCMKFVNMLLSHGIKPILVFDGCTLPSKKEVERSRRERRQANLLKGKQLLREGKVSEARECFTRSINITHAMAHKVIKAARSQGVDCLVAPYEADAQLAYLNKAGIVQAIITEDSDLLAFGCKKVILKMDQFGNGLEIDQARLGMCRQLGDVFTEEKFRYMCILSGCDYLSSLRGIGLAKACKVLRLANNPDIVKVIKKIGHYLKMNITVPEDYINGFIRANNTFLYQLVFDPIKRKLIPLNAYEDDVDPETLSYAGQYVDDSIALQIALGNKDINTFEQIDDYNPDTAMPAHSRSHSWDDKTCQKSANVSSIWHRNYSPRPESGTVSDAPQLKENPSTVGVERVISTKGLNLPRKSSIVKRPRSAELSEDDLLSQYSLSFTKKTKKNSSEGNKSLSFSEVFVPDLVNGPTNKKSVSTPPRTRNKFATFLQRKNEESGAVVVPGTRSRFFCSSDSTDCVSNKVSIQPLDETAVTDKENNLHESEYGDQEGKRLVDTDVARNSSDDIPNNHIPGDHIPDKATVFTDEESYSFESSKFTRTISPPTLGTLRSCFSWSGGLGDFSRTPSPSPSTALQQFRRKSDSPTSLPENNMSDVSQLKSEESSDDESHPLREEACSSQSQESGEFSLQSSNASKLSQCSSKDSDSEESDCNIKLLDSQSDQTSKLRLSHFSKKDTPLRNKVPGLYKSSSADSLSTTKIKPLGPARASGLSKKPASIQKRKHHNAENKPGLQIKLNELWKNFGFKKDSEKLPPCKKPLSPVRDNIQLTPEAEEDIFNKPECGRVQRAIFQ

Assay [1] has as its target T1, FLAG-tagged EEPD1, full-length (WT) (UniProt Q7L9B9).
T1 sequence: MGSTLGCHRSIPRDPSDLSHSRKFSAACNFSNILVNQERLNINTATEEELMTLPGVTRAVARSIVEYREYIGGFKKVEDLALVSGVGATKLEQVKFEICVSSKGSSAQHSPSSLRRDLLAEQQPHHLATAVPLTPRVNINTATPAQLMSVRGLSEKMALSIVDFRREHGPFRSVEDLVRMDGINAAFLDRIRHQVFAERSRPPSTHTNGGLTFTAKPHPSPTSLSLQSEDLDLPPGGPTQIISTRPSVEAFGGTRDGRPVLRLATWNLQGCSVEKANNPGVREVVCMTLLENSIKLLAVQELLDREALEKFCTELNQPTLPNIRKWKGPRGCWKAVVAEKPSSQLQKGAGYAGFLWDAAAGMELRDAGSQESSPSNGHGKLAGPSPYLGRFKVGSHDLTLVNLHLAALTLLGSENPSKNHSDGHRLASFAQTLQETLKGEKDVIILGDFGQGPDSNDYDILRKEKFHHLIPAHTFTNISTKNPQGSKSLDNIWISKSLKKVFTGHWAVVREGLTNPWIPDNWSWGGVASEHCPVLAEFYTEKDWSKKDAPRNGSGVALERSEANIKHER
The assay is described as follows: co-IP; full-length and truncated FLAG-tagged EEPD1 expressed in HEK-293 cells, immunoprecipitated with FLAG antibody, blot probed for Exo1; from 300 ug of total cell lysate.

The target of assay [2] is V5-tagged Exo1, full-length (WT) (UniProt Q9UQ84). The assay can be described thus: co-IP; full-length and truncated V5-tagged Exo1 expressed in HEK-293 cells, immunoprecipitated with V5 antibody, blot probed for EEPD1; from 300 ug of total cell lysate.
For assay [3] the target is unchanged. The assay can be described thus: co-IP; in vitro: recombinant FLAG-tagged EEPD1 and V5-tagged Exo1, 200 ng of each, incubated together for 30 min in the buffer without Triton X-100; both purified.
For assay [4] the target is unchanged. The assay can be described thus: co-IP; EEPD1/D181A and Exo1; initial immunoprecipitation as for panel B (300 ug of total cell lysate).

Results are given in words; binding and its absence hold for the method and conditions named. For some of these results: Binding seen in cells or lysates may run through a third protein. Some entries that bind do so weakly or less than the wild type. For some of these results: Sequences can lack the tags named with a protein.

As for “native Exo1 (endogenous, HEK-293) (from UniProt Q9UQ84 1-846) (enzyme)”, the binding result in assay [1] was “binds”.

B1: native EEPD1 (endogenous, HEK-293) (enzyme, UniProt Q7L9B9 1-569)
chain: MGSTLGCHRSIPRDPSDLSHSRKFSAACNFSNILVNQERLNINTATEEELMTLPGVTRAVARSIVEYREYIGGFKKVEDLALVSGVGATKLEQVKFEICVSSKGSSAQHSPSSLRRDLLAEQQPHHLATAVPLTPRVNINTATPAQLMSVRGLSEKMALSIVDFRREHGPFRSVEDLVRMDGINAAFLDRIRHQVFAERSRPPSTHTNGGLTFTAKPHPSPTSLSLQSEDLDLPPGGPTQIISTRPSVEAFGGTRDGRPVLRLATWNLQGCSVEKANNPGVREVVCMTLLENSIKLLAVQELLDREALEKFCTELNQPTLPNIRKWKGPRGCWKAVVAEKPSSQLQKGAGYAGFLWDAAAGMELRDAGSQESSPSNGHGKLAGPSPYLGRFKVGSHDLTLVNLHLAALTLLGSENPSKNHSDGHRLASFAQTLQETLKGEKDVIILGDFGQGPDSNDYDILRKEKFHHLIPAHTFTNISTKNPQGSKSLDNIWISKSLKKVFTGHWAVVREGLTNPWIPDNWSWGGVASEHCPVLAEFYTEKDWSKKDAPRNGSGVALERSEANIKHER
As to B1, in assay [2], the binding result is “binds”.

B2: FLAG-tagged EEPD1, full-length (WT) (enzyme, UniProt Q7L9B9 1-569)
chain: MGSTLGCHRSIPRDPSDLSHSRKFSAACNFSNILVNQERLNINTATEEELMTLPGVTRAVARSIVEYREYIGGFKKVEDLALVSGVGATKLEQVKFEICVSSKGSSAQHSPSSLRRDLLAEQQPHHLATAVPLTPRVNINTATPAQLMSVRGLSEKMALSIVDFRREHGPFRSVEDLVRMDGINAAFLDRIRHQVFAERSRPPSTHTNGGLTFTAKPHPSPTSLSLQSEDLDLPPGGPTQIISTRPSVEAFGGTRDGRPVLRLATWNLQGCSVEKANNPGVREVVCMTLLENSIKLLAVQELLDREALEKFCTELNQPTLPNIRKWKGPRGCWKAVVAEKPSSQLQKGAGYAGFLWDAAAGMELRDAGSQESSPSNGHGKLAGPSPYLGRFKVGSHDLTLVNLHLAALTLLGSENPSKNHSDGHRLASFAQTLQETLKGEKDVIILGDFGQGPDSNDYDILRKEKFHHLIPAHTFTNISTKNPQGSKSLDNIWISKSLKKVFTGHWAVVREGLTNPWIPDNWSWGGVASEHCPVLAEFYTEKDWSKKDAPRNGSGVALERSEANIKHER
In the case of B2, in assay [3], the binding result is “binds”.

B3: FLAG-tagged EEPD1 D181A (enzyme, UniProt Q7L9B9 1-569)
chain: MGSTLGCHRSIPRDPSDLSHSRKFSAACNFSNILVNQERLNINTATEEELMTLPGVTRAVARSIVEYREYIGGFKKVEDLALVSGVGATKLEQVKFEICVSSKGSSAQHSPSSLRRDLLAEQQPHHLATAVPLTPRVNINTATPAQLMSVRGLSEKMALSIVDFRREHGPFRSVEDLVRMAGINAAFLDRIRHQVFAERSRPPSTHTNGGLTFTAKPHPSPTSLSLQSEDLDLPPGGPTQIISTRPSVEAFGGTRDGRPVLRLATWNLQGCSVEKANNPGVREVVCMTLLENSIKLLAVQELLDREALEKFCTELNQPTLPNIRKWKGPRGCWKAVVAEKPSSQLQKGAGYAGFLWDAAAGMELRDAGSQESSPSNGHGKLAGPSPYLGRFKVGSHDLTLVNLHLAALTLLGSENPSKNHSDGHRLASFAQTLQETLKGEKDVIILGDFGQGPDSNDYDILRKEKFHHLIPAHTFTNISTKNPQGSKSLDNIWISKSLKKVFTGHWAVVREGLTNPWIPDNWSWGGVASEHCPVLAEFYTEKDWSKKDAPRNGSGVALERSEANIKHER
With B3, the binding result in assay [4] is on record as “binds”.
